Among the data in paper PMC12451111 are binding values, retold here.

The target of this experiment is T1, Flag-tagged LHPP (phospholysine phosphohistidine inorganic pyrophosphate phosphatase) (human) (UniProt Q9H008).
T1 sequence: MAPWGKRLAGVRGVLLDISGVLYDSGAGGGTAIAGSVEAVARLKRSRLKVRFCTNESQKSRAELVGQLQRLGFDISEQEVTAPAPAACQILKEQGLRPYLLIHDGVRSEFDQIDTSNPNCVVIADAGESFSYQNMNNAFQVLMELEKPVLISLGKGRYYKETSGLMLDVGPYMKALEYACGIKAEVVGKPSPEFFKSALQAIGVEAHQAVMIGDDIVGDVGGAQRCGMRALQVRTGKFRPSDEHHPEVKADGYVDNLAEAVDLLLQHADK
Nature of the experiment: affinity purification with mass spectrometry; immunoprecipitation with Flag-LHPP as bait protein in UM Mum2b cells, then mass spectrometry.

These are yes or no findings as the source states them, for the method shown. Binding seen in cells or lysates may run through a third protein. Here binding means that the protein was enriched with, or labelled near, the bait; the list need not be complete. Sequences can lack the tags named with a protein.

B1: mitochondrial aconitate hydratase 2 (aconitase 2, ACO2) (enzyme, UniProt Q99798 28-780)
chain: QRAKVAMSHFEPNEYIHYDLLEKNINIVRKRLNRPLTLSEKIVYGHLDDPASQEIERGKSYLRLRPDRVAMQDATAQMAMLQFISSGLSKVAVPSTIHCDHLIEAQVGGEKDLRRAKDINQEVYNFLATAGAKYGVGFWKPGSGIIHQIILENYAYPGVLLIGTDSHTPNGGGLGGICIGVGGADAVDVMAGIPWELKCPKVIGVKLTGSLSGWSSPKDVILKVAGILTVKGGTGAIVEYHGPGVDSISCTGMATICNMGAEIGATTSVFPYNHRMKKYLSKTGREDIANLADEFKDHLVPDPGCHYDQLIEINLSELKPHINGPFTPDLAHPVAEVGKVAEKEGWPLDIRVGLIGSCTNSSYEDMGRSAAVAKQALAHGLKCKSQFTITPGSEQIRATIERDGYAQILRDLGGIVLANACGPCIGQWDRKDIKKGEKNTIVTSYNRNFTGRNDANPETHAFVTSPEIVTALAIAGTLKFNPETDYLTGTDGKKFRLEAPDADELPKGEFDPGQDTYQHPPKDSSGQHVDVSPTSQRLQLLEPFDKWDGKDLEDLQILIKVKGKCTTDHISAAGPWLKFRGHLDNISNNLLIGAINIENGKANSVRNAVTQEFGPVPDTARYYKKHGIRWVVIGDENYGEGSSREHAALEPRHLGGRAIITKSFARIHETNLKKQGLLPLTFADPADYNKIHPVDKLTIQGLKDFTPGKPLKCIIKHPNGTQETILLNHTFNETQIEWFRAGSALNRMKELQQ
On to B1, for which the binding entry is listed as “binds”.
